We go through 42 sequences from PMC7819943, “Rice protein-binding microarrays: a tool to detect cis-acting elements near promoter regions in rice”.

Amino acid sequences for entries named in this document (tags omitted).
UniProt Q0JBA9, entry or part of it: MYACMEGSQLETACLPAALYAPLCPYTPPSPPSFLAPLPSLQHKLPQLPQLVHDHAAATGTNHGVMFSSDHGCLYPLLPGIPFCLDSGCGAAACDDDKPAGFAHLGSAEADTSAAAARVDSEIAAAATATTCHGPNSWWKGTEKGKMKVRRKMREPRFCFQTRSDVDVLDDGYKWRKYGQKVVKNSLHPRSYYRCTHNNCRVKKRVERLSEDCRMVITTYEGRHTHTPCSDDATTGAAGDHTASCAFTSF

The list shows a part of the results.

The target of the experiment is OsWRKY34 (Oryza sativa, UniProt Q0JBA9 1-250). Nature of the experiment: protein-binding microarray (RPBM); PBS, 2% BSA, 51.3 ng/ul salmon testes DNA, 50 uM zinc acetate, 200 nM TF, 25 C, 1 h; high values mean tight binding. Particulars: protein: recombinant; tags: N-terminal polyhistidine and DsRed monomer fusion (pET32a); label: CyDye5-dUTP incorporated in the synthesized complementary strand; 3' TTTTT single-stranded linker to array surface; dsDNA, one strand shown. Put shortly:
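The binding signal is fluorescence intensity per feature, in arbitrary units, read on an Axon 4000B scanner. Polyhistidine- and DsRed-tagged transcription factors (N-terminal fusions) from E. coli BL21-CodonPlus were purified on Ni–NTA and applied at 200 nM for 1 h at 25 °C to a double-stranded, BSA-blocked custom Agilent array in buffer with 50 µM zinc acetate.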
Regarding “ACCACTTTGATCAAGCATTTTTTAGTAAAATTTTTGTACCCGGAGTCACCTAGTGCAG”, the binding signal was 8400 fluorescence intensity (a.u.).
In the case of “ACTGGGATTCTAATAGTCATTATTCATGTGTTTTTTGTTTCGGAGTCACCTAGTGCAG” it was 8350 fluorescence intensity (a.u.); in that of “GGTGCTACTCCCAACGTCATATGTTGACCAGCGTCGAAGGCGGAGTCACCTAGTGCAG”, 9900 fluorescence intensity (a.u.).
As for “CTCCAGCCGATATACATGCAGCCGCTGTCATCTTTTGTTCCGGAGTCACCTAGTGCAG”, the binding signal is 9100 fluorescence intensity (a.u.).
As for “AGTGTTAATGTCAGAGTTTGTTCCAGGTATTTTCAGTTGACGGAGTCACCTAGTGCAG”, the binding signal is 9250 fluorescence intensity (a.u.).
In the case of “TCGTCTTATTTGATTTTTTTTATAATTAGCATTTTTATTACGGAGTCACCTAGTGCAG”, the binding signal was 10100 fluorescence intensity (a.u.).
In the case of “AGCCGTCATCCTCAGTCTTGAATCTCATAGCAGTAATCGTCGGAGTCACCTAGTGCAG” it was 8170 fluorescence intensity (a.u.).
On to “TTTTCGTCGCTACTCCTACATGCGCTTCTATCTCTATTTACGGAGTCACCTAGTGCAG”, for which the binding signal was 12400 fluorescence intensity (a.u.).
With “GGTAGGATTGTACTTTTTTTTTTTTTGGGACGGAGGGGTACGGAGTCACCTAGTGCAG”, the binding signal is 10100 fluorescence intensity (a.u.).
Take “GGGGTAGTTGAGTGGCAATTTTGTGTAAATATGTAAAAAACGGAGTCACCTAGTGCAG”: the binding signal is 9160 fluorescence intensity (a.u.).
The same measure for “ACCAAATTGTTCTCTATGTTACCGGTCAAGACTGCAGTTTCGGAGTCACCTAGTGCAG”: 12900 fluorescence intensity (a.u.); for “GGACTCCTGATTTCTACTCTATTCCTATTCCACTAGCTTACGGAGTCACCTAGTGCAG”: 14400 fluorescence intensity (a.u.).
In the case of “GTGCTCCAACTTCAGCCTCAACTTTTTATATTCACATTTACGGAGTCACCTAGTGCAG” it was 8260 fluorescence intensity (a.u.); in that of “CTGATCTTAACTCCGTGTTTTTCCGCGTTCTCTTTCGTTCCGGAGTCACCTAGTGCAG”, 19600 fluorescence intensity (a.u.); in that of “ATGCACGTTTGTCCTGCTTTCCTTTCCTGTTGCTTCCATACGGAGTCACCTAGTGCAG”, 14500 fluorescence intensity (a.u.).
The same measure for “TCCGCAACACCCATCTAGTTTACACCGGTAAATTCGGTCACGGAGTCACCTAGTGCAG”: 8460 fluorescence intensity (a.u.); for “TTTCTTTTTGTTTTAAGTTACTTTTATAATTTATGTAAATCGGAGTCACCTAGTGCAG”: 8680 fluorescence intensity (a.u.); for “TTCCCGTAAATACCGTTGCTTCTCGGTTGATATTCTGATACGGAGTCACCTAGTGCAG”: 11700 fluorescence intensity (a.u.).
In the case of “TTTTCAATTGTATGGCCCATTATAATGCACAAATATATAACGGAGTCACCTAGTGCAG”, the binding signal is 8380 fluorescence intensity (a.u.).
For “CGTTGTTACCACCTCATTTTACGTGGAACATTTAATCTTTCGGAGTCACCTAGTGCAG”, the binding signal was 9030 fluorescence intensity (a.u.).
For the sequence “TAAGCACAGTTGACTTTTTTTTTGGTGTGTTCCGGTGTATCGGAGTCACCTAGTGCAG”, the binding signal is 20900 fluorescence intensity (a.u.).
The same measure for “TGTTTCATATCTATCTTATATGTTATATATACGTCGCATTCGGAGTCACCTAGTGCAG”: 9180 fluorescence intensity (a.u.).
As for “GACCGGCCAAGTGCTATAGCCGCTGCTCATCTCTCTAAACCGGAGTCACCTAGTGCAG”, the binding signal is 8070 fluorescence intensity (a.u.).
With “TTGTCAAGTTGTTGTACTCGGATGTTCAATTCTCATGTTCCGGAGTCACCTAGTGCAG”, the binding signal was 10000 fluorescence intensity (a.u.).
For “TCGCATATTCTTGTTCTTTTCTTTCCCCTGAACTAATAGCCGGAGTCACCTAGTGCAG”, the binding signal is 8370 fluorescence intensity (a.u.).
In the case of “TGATGCTATACACAACTCTTTCTCTTGCTAACTGTGCTTACGGAGTCACCTAGTGCAG” it was 8400 fluorescence intensity (a.u.).
In the case of “TGCCACACTTTGCCATACTTGAGGTTAGACAAGTTTGACCCGGAGTCACCTAGTGCAG” it was 9090 fluorescence intensity (a.u.); in that of “GGGCTAGTTCCGATCGGTACTAGTTCGGGGCGTGACACACCGGAGTCACCTAGTGCAG”, 9460 fluorescence intensity (a.u.); in that of “TCGTCGACGTGGGAAGGGGTGGTCCGTCCGATCTGAATAACGGAGTCACCTAGTGCAG”, 8440 fluorescence intensity (a.u.).
In the case of “ATTTGTATTGAGCTTTGTGTATATCTGTTTGGCCCAGTTGCGGAGTCACCTAGTGCAG” it was 9150 fluorescence intensity (a.u.); in that of “ACGCACGATGCTTTGACTATGGATGGCCTTATCATGTATTCGGAGTCACCTAGTGCAG”, 9390 fluorescence intensity (a.u.); in that of “GGTGACAGTTTGGTTAGTGACAAATAGTTACATTCTCGTTCGGAGTCACCTAGTGCAG”, 9140 fluorescence intensity (a.u.).
Consider “TCCGACTGCACGCCCGCTGGAACCACGCGCCCTACCCCGCCGGAGTCACCTAGTGCAG”, for which the binding signal is 9210 fluorescence intensity (a.u.).
The same measure for “CGCTCACTCCTCTCCCGCGCTGACCACCTCTGCATGCGCTCGGAGTCACCTAGTGCAG”: 8060 fluorescence intensity (a.u.); for “TCATGCAATTTGGTTGAAGCTGTCCTATACTATTATCCTTCGGAGTCACCTAGTGCAG”: 9060 fluorescence intensity (a.u.); for “CTCTCTATTTCGTGTTATAAGTCACTTTGATTTTTTTTCACGGAGTCACCTAGTGCAG”: 8860 fluorescence intensity (a.u.).
Regarding “TATACCCTAAATTATTTTTTTGCATCGTTAATTTTTTATACGGAGTCACCTAGTGCAG”, the binding signal is 8050 fluorescence intensity (a.u.).
In the case of “TCTTTCTTGGTGTTTGTTCAATATTTGTTTCATCCATGCTCGGAGTCACCTAGTGCAG” it was 8180 fluorescence intensity (a.u.).
Turning to “CTAGGACCTGGTACCTGTGATATGTGTATCCTGTTGCAACCGGAGTCACCTAGTGCAG”, the binding signal is 8050 fluorescence intensity (a.u.).
The same measure for “ATCCTTTCTCTTCTCAGATCTCAACAACTCGTTTTTGATCCGGAGTCACCTAGTGCAG”: 9070 fluorescence intensity (a.u.); for “ACTGCCTAGTACTGTGGGAATTGATTGTGGTTTGCTACTTCGGAGTCACCTAGTGCAG”: 8220 fluorescence intensity (a.u.).
Consider “CTCACCTCATCTCATGGCGTTTTTGTTATCTGCTCCACCTCGGAGTCACCTAGTGCAG”, for which the binding signal is 8540 fluorescence intensity (a.u.).
